According to article PMC10681733:
Results are given in words; binding and its absence hold for the method and conditions named. In cells and extracts the contact can be indirect. Some entries that bind do so weakly or less than the wild type. Blank lines part the entries; values can stand above or below the molecule they belong to.

Chains of the proteins cited; added tags and fusions are not shown.
UniProt O09106: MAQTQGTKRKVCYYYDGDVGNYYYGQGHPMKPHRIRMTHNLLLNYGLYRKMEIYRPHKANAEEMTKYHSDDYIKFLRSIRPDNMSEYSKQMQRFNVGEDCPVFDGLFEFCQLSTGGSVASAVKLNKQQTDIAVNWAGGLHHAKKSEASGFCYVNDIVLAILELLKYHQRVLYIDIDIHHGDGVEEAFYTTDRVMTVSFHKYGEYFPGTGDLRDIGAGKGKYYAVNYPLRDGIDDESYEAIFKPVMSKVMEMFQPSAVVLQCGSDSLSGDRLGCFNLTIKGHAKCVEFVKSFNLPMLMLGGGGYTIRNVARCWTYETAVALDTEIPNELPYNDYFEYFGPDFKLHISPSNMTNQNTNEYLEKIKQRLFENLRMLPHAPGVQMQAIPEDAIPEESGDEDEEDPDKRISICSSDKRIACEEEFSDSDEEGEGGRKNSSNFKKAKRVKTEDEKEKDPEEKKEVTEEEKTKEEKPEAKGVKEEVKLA
UniProt Q13547: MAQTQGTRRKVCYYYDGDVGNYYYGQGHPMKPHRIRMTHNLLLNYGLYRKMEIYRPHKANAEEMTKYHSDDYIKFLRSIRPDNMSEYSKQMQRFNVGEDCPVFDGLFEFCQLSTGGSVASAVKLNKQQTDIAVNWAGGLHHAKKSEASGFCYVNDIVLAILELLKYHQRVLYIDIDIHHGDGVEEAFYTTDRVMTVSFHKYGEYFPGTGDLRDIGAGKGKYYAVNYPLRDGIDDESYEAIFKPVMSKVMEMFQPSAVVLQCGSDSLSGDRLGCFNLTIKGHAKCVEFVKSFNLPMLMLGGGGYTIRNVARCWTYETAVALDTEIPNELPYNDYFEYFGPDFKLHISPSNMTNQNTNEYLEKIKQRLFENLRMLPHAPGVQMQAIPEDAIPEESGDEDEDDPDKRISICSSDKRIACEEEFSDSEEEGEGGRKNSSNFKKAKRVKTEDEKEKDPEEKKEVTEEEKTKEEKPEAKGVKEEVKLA
UniProt Q92769: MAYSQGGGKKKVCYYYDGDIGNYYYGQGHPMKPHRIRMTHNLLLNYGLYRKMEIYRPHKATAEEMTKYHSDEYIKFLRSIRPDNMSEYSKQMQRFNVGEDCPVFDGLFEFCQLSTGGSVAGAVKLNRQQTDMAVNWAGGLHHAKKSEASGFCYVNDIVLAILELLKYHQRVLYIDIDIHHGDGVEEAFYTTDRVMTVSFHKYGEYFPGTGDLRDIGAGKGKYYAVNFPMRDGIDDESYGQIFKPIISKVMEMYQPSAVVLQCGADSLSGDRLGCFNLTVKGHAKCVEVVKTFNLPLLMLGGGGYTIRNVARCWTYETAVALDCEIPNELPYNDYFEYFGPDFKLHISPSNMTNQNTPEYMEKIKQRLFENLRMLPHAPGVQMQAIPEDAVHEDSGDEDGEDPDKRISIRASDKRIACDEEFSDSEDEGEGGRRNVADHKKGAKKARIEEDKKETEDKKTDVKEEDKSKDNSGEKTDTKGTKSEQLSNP

Experiments:
[1] = molecular target: T1, Genetic suppressor element 1 (GSE1) (human (endogenous in HAP1)) (UniProt Q14687); assay: co-IP; GSE1-specific antibody IP from whole-cell lysates of transgenic HAP1 cells expressing FLAG-tagged HDAC1 or HDAC2 variants, Protein A/G Dynabeads, Hunt buffer; control anti-mouse IgG; western blot and deacetylase activity on beads
T1 sequence: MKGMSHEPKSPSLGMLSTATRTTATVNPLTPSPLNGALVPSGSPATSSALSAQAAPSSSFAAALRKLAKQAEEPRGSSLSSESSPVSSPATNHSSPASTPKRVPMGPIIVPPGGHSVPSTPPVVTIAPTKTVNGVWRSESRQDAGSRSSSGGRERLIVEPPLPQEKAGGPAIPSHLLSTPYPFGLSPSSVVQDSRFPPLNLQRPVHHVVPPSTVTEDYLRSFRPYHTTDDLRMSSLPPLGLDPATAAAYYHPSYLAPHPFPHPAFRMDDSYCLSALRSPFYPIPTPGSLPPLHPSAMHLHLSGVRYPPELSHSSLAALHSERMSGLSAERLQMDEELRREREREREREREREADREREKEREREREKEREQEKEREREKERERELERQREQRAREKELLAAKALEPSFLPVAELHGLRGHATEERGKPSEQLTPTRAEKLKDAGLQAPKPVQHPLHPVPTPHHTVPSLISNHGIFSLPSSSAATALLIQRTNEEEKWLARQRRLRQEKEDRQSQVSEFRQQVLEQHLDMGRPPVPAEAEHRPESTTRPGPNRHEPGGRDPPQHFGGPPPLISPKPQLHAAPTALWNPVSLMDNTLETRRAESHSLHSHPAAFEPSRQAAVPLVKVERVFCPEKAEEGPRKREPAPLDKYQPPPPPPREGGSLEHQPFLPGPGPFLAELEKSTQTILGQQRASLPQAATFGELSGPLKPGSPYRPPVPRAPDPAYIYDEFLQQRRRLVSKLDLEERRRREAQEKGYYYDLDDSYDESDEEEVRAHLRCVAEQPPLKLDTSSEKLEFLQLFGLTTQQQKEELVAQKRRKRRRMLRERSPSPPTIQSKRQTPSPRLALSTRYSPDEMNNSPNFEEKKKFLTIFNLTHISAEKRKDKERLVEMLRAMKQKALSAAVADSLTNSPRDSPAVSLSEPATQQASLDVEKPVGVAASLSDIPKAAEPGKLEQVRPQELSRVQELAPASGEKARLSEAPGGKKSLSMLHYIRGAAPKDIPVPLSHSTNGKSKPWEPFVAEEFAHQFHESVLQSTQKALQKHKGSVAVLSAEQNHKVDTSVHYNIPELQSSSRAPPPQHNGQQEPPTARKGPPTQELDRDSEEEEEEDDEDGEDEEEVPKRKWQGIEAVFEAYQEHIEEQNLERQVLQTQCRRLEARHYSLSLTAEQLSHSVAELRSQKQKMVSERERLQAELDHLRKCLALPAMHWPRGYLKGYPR

[2] = molecular target: HDAC1 (mouse) (mouse (endogenous in MEFs and murine Th1 T-cells)) (UniProt O09106); assay: co-IP; co-IP/western blot of HDAC1-GSE1 from whole-cell lysates of HAP1, MEFs and murine Th1 T-cells; HDAC1 KO HAP1 cells as negative control; precipitating antibody not told in the legend
[3] = molecular target: T2, USP22 (human (endogenous in HAP1)) (UniProt Q9UPT9); assay: co-IP; endogenous USP22 immunoprecipitated (USP22 antibody, Dynabeads, Hunt buffer) from whole-cell lysates of HAP1 WT cells, basal and etoposide treated; also HDAC1 KO, 53BP1 KO and trichostatin A treated cells; western blot
T2 sequence: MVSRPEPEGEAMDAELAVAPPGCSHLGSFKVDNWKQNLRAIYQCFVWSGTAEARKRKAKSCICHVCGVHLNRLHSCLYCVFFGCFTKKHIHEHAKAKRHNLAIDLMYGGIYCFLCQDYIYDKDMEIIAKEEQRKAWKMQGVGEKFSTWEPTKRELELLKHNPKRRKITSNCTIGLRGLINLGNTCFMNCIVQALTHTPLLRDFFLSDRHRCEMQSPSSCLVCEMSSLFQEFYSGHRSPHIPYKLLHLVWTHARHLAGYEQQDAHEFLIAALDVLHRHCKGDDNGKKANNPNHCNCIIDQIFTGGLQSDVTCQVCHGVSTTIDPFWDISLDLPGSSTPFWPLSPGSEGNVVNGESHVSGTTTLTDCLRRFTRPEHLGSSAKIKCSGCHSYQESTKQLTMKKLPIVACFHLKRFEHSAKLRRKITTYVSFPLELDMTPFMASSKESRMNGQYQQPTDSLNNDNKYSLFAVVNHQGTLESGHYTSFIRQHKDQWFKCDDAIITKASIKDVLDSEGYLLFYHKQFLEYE

[4] = molecular target: HDAC1 (endogenous, human) (human (endogenous in HAP1)) (UniProt Q13547); assay: co-IP; co-IP/western blot of HDAC1-GSE1 from whole-cell lysates of HAP1, MEFs and murine Th1 T-cells; HDAC1 KO HAP1 cells as negative control; precipitating antibody not told in the legend

- binding [1]: binds
Molecule: C-terminally FLAG-tagged wildtype HDAC1 (from UniProt Q13547 1-482)

- binding [1]: binds
Molecule: C-terminally FLAG-tagged wildtype HDAC2 (from UniProt Q92769 1-488)

- binding [2]: binds
B1: GSE1 (mouse) (protein, UniProt Q3U3C9 1-1213)
chain: MKGMSHEPKSPSIGMLSTATRTTATVNPLTPSPLNGALVPTGSPATSSTLSAQAAPSSSFAAALRKLAKQAEEPRGSSLSSESSPVSSPATNHSSPASTPKRVPMGPIIVPPGGHSVPSTPPVVTIAPTKTVNGVWRSESRQDSGSRGSSSGRERLLVEPPLAQEKAAGPAIPSHLLSTPYPFGLSPGSVVQDSRFQPLNLQRPVHHVVPPSTVTEDYLRSFRPYHTAEDLRMSSLPPLGLDPATAAAYYHPSYLAPHPFPHPAFRMDDSYCLSALRSPFYPIPTPGSLPPLHPSAMHLHLSGVRYPPELSHSSLAALHSERMSSLSAERLQMDEELRREREREREREREADREREKEREREQREKEREKELEREREKERERELERQREQRAREKELLAAKALEPTTFLPVAELHGLRGHSTEERPKPSEQLTPTRAEKLKDVGLQAPKPVQHPLHPVPAPHHTVPSLISSHGIFSLPGSSATTALLIQRTNEEEKWLARQRRLRQEKEDRQSQVSEFRQQVLEQHLDLGRPLVPTEAEHRPESTRPGTNRHEQGSREPPQHFGGPPPLISPKPQQHTVPTALWNPVSLMDNALETRRAESHSLHSHPTAFEPSRQAAVPLVKVERVYCSEKAEEPRKREATPLDKYQPPPPPPPPREAGSLEPQTFPHGPGPFLTELEKSTQTILGQQRPSLSQATSFGELSGPLKPGSPYCHPTARGPDPAYIYDEFLQQRRKLVSKLDLEERRRREAQEKGYYYDLDDSYDESDEEEVRAHLRCVAEQPPLKLDTSSEKLEFLQLFGLTTQQQKEELVAQKRRKRRRMLRERSPSPPAVQCKRQTPSPRLALSTRYSPDEMNNSPNFEEKRKFLTFFNLTHISAEKRKDKERLVEMLRAMKQRALSAADSVTNSSRDSPPVSLSEPATQPAPLETDQPVGVPASLSDVPKTTETGRLEQLRPQELLRVQEPAPPSGEKARLSEAPGGKKSLSMLHYLRGAAPKDIPVPLSHSINGKSKPWEPFVAEEFAHQFHESVLQSTQKALQKHKGNSALLSAEQSHKVDTAIHYNIPELQSSSRVPLPQHNGQQEPPMGRKGPPMQEADQDSEEDSEEDSEEEAEEAPRRQWQGIEAIFEAYQEHIEEQNLERQVLQTQCRRLEAQNYSLSLTAEQLSHSMAELRSQKQKMVSERERLQAELDHLRKCLALPTMHWPRGYFKGYPR

- binding [3]: binds
- binding [4]: binds
B2: Genetic suppressor element 1 (GSE1) (protein, UniProt Q14687 1-1217)
chain: T1 sequence
